Test results as given in the supplement of paper PMC12889115.
Some of the results follow. Values are raw readings; no control value is given beside them.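 In the initial screen, polymyxin B was used at a concentration that permeabilizes Salmonella's outer membrane but not its inner membrane. Maximum growth was set by DMSO wells with or without polymyxin B. Since plates varied, data were ranked per plate, and compounds giving the lowest OD600 advanced as hits.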

System: Salmonella enterica serovar Typhimurium SL1344
Experiment: bacterial growth OD600 after 18 h with compound and polymyxin B; higher = more bacterial growth (less inhibition)
Conditions: 50 µM, Mueller-Hinton broth

Row | Structure (SMILES) | bacterial growth OD600 (polymyxin B 1 µg/mL) | bacterial growth OD600 (polymyxin B 0.75 µg/mL)
1 | CN(Cc1nc(-c2cccc(Cl)c2)no1)C1CCCCC1 | 0.486 | –
2 | COc1ccc(/C=C/C(=O)NC2CCCN(Cc3ccccn3)C2)cc1OC (centres undefined) | 0.956 | –
3 | CC1(C)CC(CNCc2cccnc2Oc2ccc(F)cc2F)CCO1 (centres undefined) | 0.917 | –
4 | COC(=O)c1ccc(C(=O)NCCN2Cc3cc(C)ccc3OC(C)C2)cc1 (centres undefined) | – | 0.777
5 | CC(C)c1ccc(NC2CCCN(C(=O)CCCn3cncn3)C2)cc1 (centres undefined) | 0.827 | –
6 | O=C(c1csnn1)N1CCC(C2CCN(Cc3cccc(F)c3F)CC2)C1 (centres undefined) | – | 0.814
7 | COc1ccc(CCCN2C(=O)O[C@@H]3CN(Cc4cccc(C)n4)C[C@@H]32)cc1 | 0.992 | –
8 | CCN1CCN(C2(C(=O)NCc3ccccc3C)Cc3ccccc3C2)CC1 | – | 0.794
9 | COC(=O)c1c(OCCCc2ccccc2)cc(=O)n2c1CCN(C(=O)c1ccccc1F)CC2 | – | 0.775
